Results: patent US20200316207A1, “POLYMERIC BILE ACID NANOPARTICLES AS ANTI-INFLAMMATORY AGENTS” (Yale University, priority 2015, published 2020)
For at least one compound, name, drawing or mass did not settle the structure.

Assay: Loading of dye/agents in NPs
Format: physicochemical
Experimental: Polymer Synthesis and Nanoparticle (NP) formulation. […] Chloroform was utilized as the mobile phase with a flow rate of 1 mL/min and both the columns and RI detector were maintained at 40° C. MW characteristics were determined relative to a calibration curve generated from narrow polydispersity polystyrene standards (Aldrich Chemical). […] Polymers or the mixture (100 mg) was dissolved in 2 mL chloroform containing DIR (1 mg), coumarin 6 (10 mg), RAPA (10 mg) or iron oxide (1 mg). Phosphate-buffered saline (PBS, 100 μL) or the PBS containing INS (10 μg) was added dropwise to the chloroform polymer solution while vortexing and homogenized using an IKA T25 Digital Ultra-Turrax (IKA). This dispersant phase was then added dropwise to a continuous phase of 5% PVA and homogenized. The mixture was then added dropwise to 200 mL of 0.2% PVA and left stirring for 2 h to evaporate the solvent. NPs were collected by centrifugation at 12,000 rpm for 20 min at 4° C. and then washed 3 times with deionized water. […] The hydrodynamic diameter and surface charge of NPs were measured by a Malvern Zetasizer. […] At each time point, NPs were centrifuged, and supernatant was collected to measure the amount of DIR released from the particles using a plate reader (λex 750 nm, λem 790 nm, SpectraMax M5, Molecular Devices). Insulin release was quantified by the BCA assay.

With `CO[C@H]1C[C@@H]2CC[C@@H](C)[C@@](O)(O2)C(=O)C(=O)N2CCCC[C@H]2C(=O)O[C@H]([C@H](C)C[C@@H]2CC[C@@H](O)[C@H](OC)C2)CC(=O)[C@H](C)/C=C(\C)[C@@H](O)[C@@H](OC)C(=O)[C@H](C)C[C@H](C)/C=C/C=C/C=C/1C` [RAPA, Rapamycin] the Loading of agent was 80.1 μg per mg of particles.
